Article PMC6140323
No constants are given. Whether binding was seen depends on the method and setting. In cells and extracts the contact can be indirect. Here binding means that the protein was enriched with, or labelled near, the bait; the list need not be complete. Where a sequence is shown, tags or fusion partners need not be part of it.

The chains behind the UniProt entries cited, without tags or fusion partners.
UniProt Q9NZJ4: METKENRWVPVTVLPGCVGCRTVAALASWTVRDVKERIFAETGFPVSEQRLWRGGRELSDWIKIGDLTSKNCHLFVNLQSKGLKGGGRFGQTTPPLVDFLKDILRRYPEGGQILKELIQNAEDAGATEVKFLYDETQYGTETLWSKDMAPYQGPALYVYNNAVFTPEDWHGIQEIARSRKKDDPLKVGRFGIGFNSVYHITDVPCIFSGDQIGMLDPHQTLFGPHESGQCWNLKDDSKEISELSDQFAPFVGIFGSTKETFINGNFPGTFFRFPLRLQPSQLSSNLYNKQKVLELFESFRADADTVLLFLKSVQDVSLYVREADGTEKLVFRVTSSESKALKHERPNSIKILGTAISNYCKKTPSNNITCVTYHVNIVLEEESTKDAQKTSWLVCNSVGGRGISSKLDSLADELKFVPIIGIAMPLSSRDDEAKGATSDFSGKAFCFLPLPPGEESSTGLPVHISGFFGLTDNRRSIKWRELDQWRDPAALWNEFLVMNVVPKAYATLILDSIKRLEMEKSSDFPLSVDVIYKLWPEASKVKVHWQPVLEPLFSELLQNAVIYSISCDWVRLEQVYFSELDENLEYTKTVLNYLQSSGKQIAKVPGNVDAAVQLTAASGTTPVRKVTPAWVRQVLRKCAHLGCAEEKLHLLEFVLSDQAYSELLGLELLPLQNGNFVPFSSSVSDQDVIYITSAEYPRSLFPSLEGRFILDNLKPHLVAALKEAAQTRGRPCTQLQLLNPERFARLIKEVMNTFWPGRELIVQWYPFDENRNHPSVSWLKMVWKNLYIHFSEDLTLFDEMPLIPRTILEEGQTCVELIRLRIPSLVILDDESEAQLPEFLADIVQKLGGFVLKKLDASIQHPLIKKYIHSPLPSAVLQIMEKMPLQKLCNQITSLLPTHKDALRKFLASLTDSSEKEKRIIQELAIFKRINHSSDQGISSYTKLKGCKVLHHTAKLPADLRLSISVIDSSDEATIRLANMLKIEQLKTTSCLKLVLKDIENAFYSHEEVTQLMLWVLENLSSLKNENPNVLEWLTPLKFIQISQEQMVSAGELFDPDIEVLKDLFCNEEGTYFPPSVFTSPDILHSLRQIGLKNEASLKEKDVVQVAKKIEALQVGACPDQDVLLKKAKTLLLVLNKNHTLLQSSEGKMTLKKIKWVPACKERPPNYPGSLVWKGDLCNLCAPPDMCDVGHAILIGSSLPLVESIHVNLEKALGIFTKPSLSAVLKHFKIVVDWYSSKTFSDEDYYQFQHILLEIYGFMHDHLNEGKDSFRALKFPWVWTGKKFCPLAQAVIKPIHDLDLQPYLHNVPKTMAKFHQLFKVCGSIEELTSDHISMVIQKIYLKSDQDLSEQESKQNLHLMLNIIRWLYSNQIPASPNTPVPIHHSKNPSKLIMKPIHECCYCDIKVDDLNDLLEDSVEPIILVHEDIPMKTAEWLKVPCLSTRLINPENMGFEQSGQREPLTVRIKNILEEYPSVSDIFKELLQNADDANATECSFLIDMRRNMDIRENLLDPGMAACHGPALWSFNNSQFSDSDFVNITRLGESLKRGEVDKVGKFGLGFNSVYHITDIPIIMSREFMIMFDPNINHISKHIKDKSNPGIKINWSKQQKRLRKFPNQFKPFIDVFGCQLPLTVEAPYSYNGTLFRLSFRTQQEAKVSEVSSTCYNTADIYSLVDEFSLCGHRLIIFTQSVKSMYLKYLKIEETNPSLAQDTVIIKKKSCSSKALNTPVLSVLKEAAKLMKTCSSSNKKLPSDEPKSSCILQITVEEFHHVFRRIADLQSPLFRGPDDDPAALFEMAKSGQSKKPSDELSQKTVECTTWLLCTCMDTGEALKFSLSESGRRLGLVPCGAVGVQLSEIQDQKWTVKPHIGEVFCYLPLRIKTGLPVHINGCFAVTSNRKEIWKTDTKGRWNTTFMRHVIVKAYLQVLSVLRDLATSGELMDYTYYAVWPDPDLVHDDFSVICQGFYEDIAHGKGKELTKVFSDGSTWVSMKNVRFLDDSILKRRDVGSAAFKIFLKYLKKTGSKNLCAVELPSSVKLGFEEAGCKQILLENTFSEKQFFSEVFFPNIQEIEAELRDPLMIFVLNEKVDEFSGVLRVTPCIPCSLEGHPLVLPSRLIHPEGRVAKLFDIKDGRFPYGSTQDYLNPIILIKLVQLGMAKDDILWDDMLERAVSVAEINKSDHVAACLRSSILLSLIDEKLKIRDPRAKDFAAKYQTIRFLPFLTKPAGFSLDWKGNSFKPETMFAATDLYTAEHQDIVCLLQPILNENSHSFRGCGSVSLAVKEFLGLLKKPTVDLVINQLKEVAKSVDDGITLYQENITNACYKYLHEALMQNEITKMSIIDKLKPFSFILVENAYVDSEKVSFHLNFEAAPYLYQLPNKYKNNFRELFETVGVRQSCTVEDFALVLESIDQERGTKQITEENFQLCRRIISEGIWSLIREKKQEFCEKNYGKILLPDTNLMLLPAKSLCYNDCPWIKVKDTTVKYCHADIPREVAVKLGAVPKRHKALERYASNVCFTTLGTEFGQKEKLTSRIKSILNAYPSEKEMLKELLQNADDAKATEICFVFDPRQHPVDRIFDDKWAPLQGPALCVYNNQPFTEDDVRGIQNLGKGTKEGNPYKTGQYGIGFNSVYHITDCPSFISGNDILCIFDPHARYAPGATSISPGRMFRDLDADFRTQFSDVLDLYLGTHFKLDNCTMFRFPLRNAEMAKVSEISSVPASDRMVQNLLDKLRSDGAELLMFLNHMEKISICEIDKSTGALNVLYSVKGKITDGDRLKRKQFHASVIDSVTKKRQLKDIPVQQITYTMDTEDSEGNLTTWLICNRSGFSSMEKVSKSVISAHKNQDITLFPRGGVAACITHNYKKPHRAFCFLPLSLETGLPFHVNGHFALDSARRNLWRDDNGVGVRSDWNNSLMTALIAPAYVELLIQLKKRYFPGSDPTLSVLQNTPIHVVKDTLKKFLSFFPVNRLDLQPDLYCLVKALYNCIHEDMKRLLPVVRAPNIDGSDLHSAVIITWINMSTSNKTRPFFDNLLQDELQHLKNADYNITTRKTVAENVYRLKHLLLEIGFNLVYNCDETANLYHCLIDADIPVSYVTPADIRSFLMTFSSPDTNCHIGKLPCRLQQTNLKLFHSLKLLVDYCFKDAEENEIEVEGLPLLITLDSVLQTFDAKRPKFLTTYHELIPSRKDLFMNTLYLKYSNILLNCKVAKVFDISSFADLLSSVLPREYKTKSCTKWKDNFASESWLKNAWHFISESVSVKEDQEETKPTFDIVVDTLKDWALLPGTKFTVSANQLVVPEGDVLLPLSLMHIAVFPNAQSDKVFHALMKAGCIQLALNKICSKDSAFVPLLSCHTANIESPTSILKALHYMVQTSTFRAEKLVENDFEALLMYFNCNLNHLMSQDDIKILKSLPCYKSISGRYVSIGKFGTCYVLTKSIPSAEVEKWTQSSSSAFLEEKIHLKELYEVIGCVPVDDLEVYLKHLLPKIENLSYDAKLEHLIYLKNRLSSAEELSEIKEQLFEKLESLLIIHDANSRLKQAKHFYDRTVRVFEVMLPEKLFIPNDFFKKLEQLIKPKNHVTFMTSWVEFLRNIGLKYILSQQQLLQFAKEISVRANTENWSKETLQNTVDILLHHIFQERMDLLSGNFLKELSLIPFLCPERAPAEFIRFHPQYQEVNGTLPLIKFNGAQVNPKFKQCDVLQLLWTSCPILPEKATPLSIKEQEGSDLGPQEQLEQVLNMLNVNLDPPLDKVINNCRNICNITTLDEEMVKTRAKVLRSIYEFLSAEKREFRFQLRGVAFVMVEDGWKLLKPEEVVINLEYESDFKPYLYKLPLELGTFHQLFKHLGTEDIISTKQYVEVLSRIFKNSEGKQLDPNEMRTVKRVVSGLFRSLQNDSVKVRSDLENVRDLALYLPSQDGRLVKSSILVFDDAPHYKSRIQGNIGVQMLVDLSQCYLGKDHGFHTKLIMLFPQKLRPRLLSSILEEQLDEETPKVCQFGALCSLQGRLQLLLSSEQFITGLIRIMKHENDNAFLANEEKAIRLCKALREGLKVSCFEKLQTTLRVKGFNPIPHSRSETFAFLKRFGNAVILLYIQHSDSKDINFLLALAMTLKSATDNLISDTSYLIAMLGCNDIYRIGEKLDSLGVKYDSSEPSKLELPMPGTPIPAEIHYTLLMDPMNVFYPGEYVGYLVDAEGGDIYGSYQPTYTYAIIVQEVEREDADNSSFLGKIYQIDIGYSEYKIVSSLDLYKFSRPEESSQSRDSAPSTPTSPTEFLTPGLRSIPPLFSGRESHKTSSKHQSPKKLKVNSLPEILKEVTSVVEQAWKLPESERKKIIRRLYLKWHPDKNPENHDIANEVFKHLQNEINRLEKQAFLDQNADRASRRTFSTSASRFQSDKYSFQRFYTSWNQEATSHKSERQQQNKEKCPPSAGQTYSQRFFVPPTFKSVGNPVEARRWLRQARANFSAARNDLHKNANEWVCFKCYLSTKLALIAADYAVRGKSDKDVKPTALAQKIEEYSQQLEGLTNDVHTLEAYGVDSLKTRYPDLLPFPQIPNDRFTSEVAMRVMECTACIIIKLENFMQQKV

T1: GFP-SNX21 (N-terminal GFP-tagged full-length human sorting nexin-21) (human) (UniProt Q969T3)
T1 sequence: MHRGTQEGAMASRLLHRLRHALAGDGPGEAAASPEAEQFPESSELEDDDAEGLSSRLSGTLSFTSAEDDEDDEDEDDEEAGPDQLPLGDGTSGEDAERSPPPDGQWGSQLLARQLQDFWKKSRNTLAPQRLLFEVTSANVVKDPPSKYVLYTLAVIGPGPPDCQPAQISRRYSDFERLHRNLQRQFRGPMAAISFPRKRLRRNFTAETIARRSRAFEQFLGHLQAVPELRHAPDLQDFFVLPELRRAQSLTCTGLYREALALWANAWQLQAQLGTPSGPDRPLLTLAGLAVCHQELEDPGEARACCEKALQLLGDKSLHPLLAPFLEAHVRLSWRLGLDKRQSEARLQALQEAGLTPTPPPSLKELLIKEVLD

B1: septin 2 (SEPT2), endogenous (protein, UniProt Q15019 1-361)
chain: MSKQQPTQFINPETPGYVGFANLPNQVHRKSVKKGFEFTLMVVGESGLGKSTLINSLFLTDLYPERVIPGAAEKIERTVQIEASTVEIEERGVKLRLTVVDTPGYGDAINCRDCFKTIISYIDEQFERYLHDESGLNRRHIIDNRVHCCFYFISPFGHGLKPLDVAFMKAIHNKVNIVPVIAKADTLTLKERERLKKRILDEIEEHNIKIYHLPDAESDEDEDFKEQTRLLKASIPFSVVGSNQLIEAKGKKVRGRLYPWGVVEVENPEHNDFLKLRTMLITHMQDLQEVTQDLHYENFRSERLKRGGRKVENEDMNKDQILLEKEAELRRMQEMIARMQAQMQMQMQGGDGDGGALGHHV
B2: septin 6 (SEPT6), endogenous (protein, UniProt Q14141 1-434)
chain: MAATDIARQVGEGCRTVPLAGHVGFDSLPDQLVNKSVSQGFCFNILCVGETGLGKSTLMDTLFNTKFEGEPATHTQPGVQLQSNTYDLQESNVRLKLTIVSTVGFGDQINKEDSYKPIVEFIDAQFEAYLQEELKIRRVLHTYHDSRIHVCLYFIAPTGHSLKSLDLVTMKKLDSKVNIIPIIAKADAISKSELTKFKIKITSELVSNGVQIYQFPTDDESVAEINGTMNAHLPFAVIGSTEELKIGNKMMRARQYPWGTVQVENEAHCDFVKLREMLIRVNMEDLREQTHTRHYELYRRCKLEEMGFKDTDPDSKPFSLQETYEAKRNEFLGELQKKEEEMRQMFVQRVKEKEAELKEAEKELHEKFDRLKKLHQDEKKKLEDKKKSLDDEVNAFKQRKTAAELLQSQGSQAGGSQTLKRDKEKKNNPWLCTE
B3: septin 7 (SEPT7), endogenous (protein, UniProt Q16181 1-437)
chain: MSVSARSAAAEERSVNSSTMVAQQKNLEGYVGFANLPNQVYRKSVKRGFEFTLMVVGESGLGKSTLINSLFLTDLYSPEYPGPSHRIKKTVQVEQSKVLIKEGGVQLLLTIVDTPGFGDAVDNSNCWQPVIDYIDSKFEDYLNAESRVNRRQMPDNRVQCCLYFIAPSGHGLKPLDIEFMKRLHEKVNIIPLIAKADTLTPEECQQFKKQIMKEIQEHKIKIYEFPETDDEEENKLVKKIKDRLPLAVVGSNTIIEVNGKRVRGRQYPWGVAEVENGEHCDFTILRNMLIRTHMQDLKDVTNNVHYENYRSRKLAAVTYNGVDNNKNKGQLTKSPLAQMEEERREHVAKMKKMEMEMEQVFEMKVKEKVQKLKDSEAELQRRHEQMKKNLEAQHKELEEKRRQFEDEKANWEAQQRILEQQNSSRTLEKNKKKGKIF
B4: septin 8 (SEPT8), endogenous (protein, UniProt Q92599 1-483)
chain: MAATDLERFSNAEPEPRSLSLGGHVGFDSLPDQLVSKSVTQGFSFNILCVGETGIGKSTLMNTLFNTTFETEEASHHEACVRLRPQTYDLQESNVQLKLTIVDAVGFGDQINKDESYRPIVDYIDAQFENYLQEELKIRRSLFDYHDTRIHVCLYFITPTGHSLKSLDLVTMKKLDSKVNIIPIIAKADTISKSELHKFKIKIMGELVSNGVQIYQFPTDDEAVAEINAVMNAHLPFAVVGSTEEVKVGNKLVRARQYPWGVVQVENENHCDFVKLREMLIRVNMEDLREQTHSRHYELYRRCKLEEMGFQDSDGDSQPFSLQETYEAKRKEFLSELQRKEEEMRQMFVNKVKETELELKEKERELHEKFEHLKRVHQEEKRKVEEKRRELEEETNAFNRRKAAVEALQSQALHATSQQPLRKDKDKKNRSDIGAHQPGMSLSSSKVMMTKASVEPLNCSSWWPAIQCCSCLVRDATWREGFL
B5: septin 10 (SEPT10), endogenous (protein, UniProt Q9P0V9 1-454)
chain: MASSEVARHLLFQSHMATKTTCMSSQGSDDEQIKRENIRSLTMSGHVGFESLPDQLVNRSIQQGFCFNILCVGETGIGKSTLIDTLFNTNFEDYESSHFCPNVKLKAQTYELQESNVQLKLTIVNTVGFGDQINKEESYQPIVDYIDAQFEAYLQEELKIKRSLFTYHDSRIHVCLYFISPTGHSLKTLDLLTMKNLDSKVNIIPVIAKADTVSKTELQKFKIKLMSELVSNGVQIYQFPTDDDTIAKVNAAMNGQLPFAVVGSMDEVKVGNKMVKARQYPWGVVQVENENHCDFVKLREMLICTNMEDLREQTHTRHYELYRRCKLEEMGFTDVGPENKPVSVQETYEAKRHEFHGERQRKEEEMKQMFVQRVKEKEAILKEAERELQAKFEHLKRLHQEERMKLEEKRRLLEEEIIAFSKKKATSEIFHSQSFLATGSNLRKDKDRKNSNFL
B6: septin 11 (SEPT11), endogenous (protein, UniProt Q9NVA2 1-429)
chain: MAVAVGRPSNEELRNLSLSGHVGFDSLPDQLVNKSTSQGFCFNILCVGETGIGKSTLMDTLFNTKFESDPATHNEPGVRLKARSYELQESNVRLKLTIVDTVGFGDQINKDDSYKPIVEYIDAQFEAYLQEELKIKRSLFNYHDTRIHACLYFIAPTGHSLKSLDLVTMKKLDSKVNIIPIIAKADTIAKNELHKFKSKIMSELVSNGVQIYQFPTDEETVAEINATMSVHLPFAVVGSTEEVKIGNKMAKARQYPWGVVQVENENHCDFVKLREMLIRVNMEDLREQTHTRHYELYRRCKLEEMGFKDTDPDSKPFSLQETYEAKRNEFLGELQKKEEEMRQMFVMRVKEKEAELKEAEKELHEKFDLLKRTHQEEKKKVEDKKKELEEEVNNFQKKKAAAQLLQSQAQQSGAQQTKKDKDKKNASFT

These molecules were tested against T1, GFP-SNX21 (N-terminal GFP-tagged full-length human sorting nexin-21) (human) (assay: affinity purification with mass spectrometry; SILAC: GFP-nanotrap precipitation of GFP-SNX21 (R6K4) against GFP (R0K0) from virally transduced RPE1 cells, 1 h at 4°C, 50 mM Tris-HCl pH 7.4, 0.5% NP40; precipitates pooled, SDS-PAGE, LC-MS/MS).

binding, binds:
sacsin, endogenous (from UniProt Q9NZJ4 1-4579)
huntingtin (Htt), endogenous (from UniProt P42858 1-3142)
B1
B2
B3
B4
B5
B6
